From patent publication US20050106179A1 come the findings set out here.

Amino acid sequences for entries named in this document (tags omitted). Residues count along the entry.
UniProt O00206, residues 24-839: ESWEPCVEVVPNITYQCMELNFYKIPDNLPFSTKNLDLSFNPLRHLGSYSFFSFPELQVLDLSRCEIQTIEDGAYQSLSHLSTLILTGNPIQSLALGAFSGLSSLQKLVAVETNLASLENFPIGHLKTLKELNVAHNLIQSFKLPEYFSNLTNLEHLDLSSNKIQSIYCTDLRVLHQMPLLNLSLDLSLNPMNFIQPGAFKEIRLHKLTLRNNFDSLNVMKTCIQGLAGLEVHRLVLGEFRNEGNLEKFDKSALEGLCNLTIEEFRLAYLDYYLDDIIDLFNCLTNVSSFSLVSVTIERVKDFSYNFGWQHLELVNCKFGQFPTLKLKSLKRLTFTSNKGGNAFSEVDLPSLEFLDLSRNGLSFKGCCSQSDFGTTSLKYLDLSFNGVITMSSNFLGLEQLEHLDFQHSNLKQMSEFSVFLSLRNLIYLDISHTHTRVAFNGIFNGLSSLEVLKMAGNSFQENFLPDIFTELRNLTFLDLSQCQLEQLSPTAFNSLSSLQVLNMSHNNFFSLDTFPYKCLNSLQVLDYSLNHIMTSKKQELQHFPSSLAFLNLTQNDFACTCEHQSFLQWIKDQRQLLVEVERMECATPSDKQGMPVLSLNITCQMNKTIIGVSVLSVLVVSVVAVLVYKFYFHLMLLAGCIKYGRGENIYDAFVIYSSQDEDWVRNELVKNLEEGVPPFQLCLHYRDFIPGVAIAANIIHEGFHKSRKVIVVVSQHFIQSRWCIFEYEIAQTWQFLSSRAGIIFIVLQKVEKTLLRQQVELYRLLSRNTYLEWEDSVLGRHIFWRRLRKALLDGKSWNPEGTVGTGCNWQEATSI

Assay [1] addresses Toll-like receptor 4 (TLR4) stably expressed on HEK293 cells (HEK/TLR4) (UniProt O00206). The assay is described as follows: cell association of radiolabelled complex with HEK/TLR4 cells.
Assay [2] has the same target. The assay is described as follows: cell association of radiolabelled complex (0.75 ng LOS/ml) with HEK/TLR4 cells, overnight at 37 C.
Assay [3] shares this target. The assay is described as follows: cell association of radiolabelled complex with HEK/TLR4 against parental HEK cells, liquid scintillation counting.
Assay [4] has the same target. The assay is described as follows: competition: excess free MD-2 against [^3H]-LOS-MD-2 (0.75 ng/ml) on HEK/TLR4 cells, cell-associated radioactivity.

These are yes or no findings as the source states them, for the method shown. Some results given as binding are weak or reduced against the parent protein; the word gives no strength. Sequences can lack the tags named with a protein.

B1: [^3H]-LOS-MD-2 complex (monomeric complex of wild-type N. meningitidis lipooligosaccharide with recombinant wt MD-2-His6, Mr~25,000) (protein)
chain: QKQYWVCNSSDASISYTYCDKMQYPISINVNPCIELKRSKGLLHIFYIPRRDLKQLYFNLYITVNTMNLPKRKEVICRGSDDDYSFCRALKGETVNTTISFSFKGIKFSKGKYKCVVEAISGSPEEMLFCLEFVILHQPNSNHHHHHH
Consider B1, for which the binding result in assay [1], in assay [2] and in assay [3] was “binds” each time.

B2: soluble polyhistidine-tagged recombinant wild-type MD-2 (MD-2-His6), in conditioned insect cell culture medium (protein, human)
chain: QKQYWVCNSSDASISYTYCDKMQYPISINVNPCIELKRSKGLLHIFYIPRRDLKQLYFNLYITVNTMNLPKRKEVICRGSDDDYSFCRALKGETVNTTISFSFKGIKFSKGKYKCVVEAISGSPEEMLFCLEFVILHQPNSNHHHHHH
In the case of B2, in assay [4], the binding entry is on record as “binds”.
